Reference: doi:10.1101/2025.05.12.653341
These are yes or no findings as the source states them, for the method shown. Binding seen in cells or lysates may run through a third protein. Here binding means that the protein was enriched with, or labelled near, the bait; the list need not be complete. Tags and fused reporters may be left off the sequences shown.

Chains of the proteins cited; added tags and fusions are not shown.
UniProt P05412: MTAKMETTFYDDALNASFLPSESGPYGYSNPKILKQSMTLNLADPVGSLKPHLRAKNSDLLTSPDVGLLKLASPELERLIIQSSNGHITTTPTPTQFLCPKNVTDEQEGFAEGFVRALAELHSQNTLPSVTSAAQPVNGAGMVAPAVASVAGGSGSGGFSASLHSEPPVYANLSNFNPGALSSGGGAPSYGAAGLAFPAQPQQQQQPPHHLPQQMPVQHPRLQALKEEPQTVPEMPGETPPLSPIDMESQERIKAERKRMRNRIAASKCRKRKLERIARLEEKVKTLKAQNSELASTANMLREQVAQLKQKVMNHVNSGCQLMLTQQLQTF

Biological target: T1, ZMAT3-3xFLAG-2xHA (UniProt Q9HA38)
T1 sequence: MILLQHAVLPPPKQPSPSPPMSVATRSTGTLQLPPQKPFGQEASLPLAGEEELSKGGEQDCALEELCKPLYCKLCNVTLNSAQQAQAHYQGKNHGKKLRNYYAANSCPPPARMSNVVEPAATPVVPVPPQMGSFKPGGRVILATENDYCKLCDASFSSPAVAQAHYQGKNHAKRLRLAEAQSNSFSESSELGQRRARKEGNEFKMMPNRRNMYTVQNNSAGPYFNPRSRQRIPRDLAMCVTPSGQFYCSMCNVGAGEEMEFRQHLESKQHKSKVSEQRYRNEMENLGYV
Test: affinity purification with mass spectrometry; anti-FLAG M2 magnetic beads, whole cell lysates of untreated or doxycycline-treated ZMAT3-FLAG-HA HCT116 cells; 10 mM Tris/Cl pH 7.5, 150 mM NaCl, 0.5 mM EDTA, 0.5 % NP40; overnight at 4°C; beads processed after washing without elution

For JUN (c-Jun) (from UniProt P05412 1-331), the binding was “binds”.
